Experimental data taken from paper PMC5998136.
No constants are given. Whether binding was seen depends on the method and setting. Binding seen in cells or lysates may run through a third protein. Here binding means that the protein was enriched with, or labelled near, the bait; the list need not be complete.

Chains of the proteins cited; added tags and fusions are not shown.
UniProt P26040: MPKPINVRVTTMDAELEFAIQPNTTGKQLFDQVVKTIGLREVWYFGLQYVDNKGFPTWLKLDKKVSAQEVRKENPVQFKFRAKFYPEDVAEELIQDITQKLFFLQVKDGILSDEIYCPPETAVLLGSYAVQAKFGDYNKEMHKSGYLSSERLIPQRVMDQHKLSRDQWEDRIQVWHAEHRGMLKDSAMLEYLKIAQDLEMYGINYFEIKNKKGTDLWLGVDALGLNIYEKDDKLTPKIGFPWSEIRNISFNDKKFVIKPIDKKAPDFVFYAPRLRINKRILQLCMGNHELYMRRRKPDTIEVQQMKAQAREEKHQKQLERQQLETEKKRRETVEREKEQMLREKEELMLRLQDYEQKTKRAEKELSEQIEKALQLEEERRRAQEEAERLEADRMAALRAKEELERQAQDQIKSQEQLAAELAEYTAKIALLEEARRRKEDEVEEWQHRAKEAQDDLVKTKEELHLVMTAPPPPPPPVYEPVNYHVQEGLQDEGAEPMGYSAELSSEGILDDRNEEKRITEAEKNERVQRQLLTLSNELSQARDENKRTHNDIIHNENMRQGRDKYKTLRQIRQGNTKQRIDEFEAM

T1: Na+/H+ exchanger regulatory factor-1 (mouse (endogenous in mouse liver)) (UniProt P70441)
T1 sequence: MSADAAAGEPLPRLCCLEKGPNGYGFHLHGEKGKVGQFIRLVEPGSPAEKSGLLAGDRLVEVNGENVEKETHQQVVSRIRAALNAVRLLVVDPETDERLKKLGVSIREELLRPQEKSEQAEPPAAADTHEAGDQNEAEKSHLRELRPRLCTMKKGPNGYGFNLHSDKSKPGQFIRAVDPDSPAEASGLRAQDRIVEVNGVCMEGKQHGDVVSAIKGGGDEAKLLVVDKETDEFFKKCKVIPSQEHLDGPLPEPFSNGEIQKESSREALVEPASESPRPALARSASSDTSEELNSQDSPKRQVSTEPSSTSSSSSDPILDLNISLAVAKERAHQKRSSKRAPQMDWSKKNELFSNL

B1: fatty acid transport protein-5 (protein, UniProt Q4LDG0 1-689)
chain: MGIWKKLTLLLLLLLLVGLGQPPWPAAMALALRWFLGDPTCLVLLGLALLGRPWISSWMPHWLSLVGAALTLFLLPLQPPPGLRWLHKDVAFTFKMLFYGLKFRRRLNKHPPETFVDALERQALAWPDRVALVCTGSEGSSITNSQLDARSCQAAWVLKAKLKDAVIQNTRDAAAILVLPSKTISALSVFLGLAKLGCPVAWINPHSRGMPLLHSVRSSGASVLIVDPDLQENLEEVLPKLLAENIHCFYLGHSSPTPGVEALGASLDAAPSDPVPASLRATIKWKSPAIFIFTSGTTGLPKPAILSHERVIQVSNVLSFCGCRADDVVYDVLPLYHTIGLVLGFLGCLQVGATCVLAPKFSASRFWAECRQHGVTVILYVGEILRYLCNVPEQPEDKIHTVRLAMGNGLRANVWKNFQQRFGPIRIWEFYGSTEGNVGLMNYVGHCGAVGRTSCILRMLTPFELVQFDIETAEPLRDKQGFCIPVEPGKPGLLLTKVRKNQPFLGYRGSQAESNRKLVANVRRVGDLYFNTGDVLTLDQEGFFYFQDRLGDTFRWKGENVSTGEVECVLSSLDFLEEVNVYGVPVPGCEGKVGMAAVKLAPGKTFDGQKLYQHVRSWLPAYATPHFIRIQDSLEITNTYKLVKSRLVREGFDVGIIADPLYILDNKAQTFRSLMPDVYQAVCEGTWNL

Biological target: T1, Na+/H+ exchanger regulatory factor-1 (mouse (endogenous in mouse liver))
Assay: affinity purification with mass spectrometry; hepatic membrane fractions of wild-type mice at ZT6 and ZT18; IP with anti-NHERF1 antibodies, SDS-PAGE with negative gel stain, bands cut and analysed by nano-LC-MS/MS

binding | Molecule
binds | EZRIN (from UniProt P26040 1-586)
binds | B1
